PubChem BioAssay AID686938, Drosophila RNAi Screening Center | 2013

Test: 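Knock-downs reducing store-operated calcium influx in Drosophila cells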 (primary screen)
Cell system: Drosophila S2R+ cells
Knock-down reagent: long dsRNA against Drosophila genes, about 0.25 µg dsRNA per well, roughly 10,000 cells
Duration: 5 days of knock-down before the calcium assay
Conditions: thapsigargin (SERCA pump blocker) to empty calcium stores; entry signal taken 4 min after adding it
Read-out: 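Duplicate raw fluo-4 intensities per well from a plate reader, at rest and four minutes after thapsigargin emptied calcium stores; entry-to-rest ratio filled for only some wells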
Direction: calcium entry signal: higher = stronger calcium signal after store depletion; resting calcium signal: higher = higher resting calcium signal
Rule for the call: 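Hit if the duplicate-averaged plate z-score for entry over resting signal is under −3; wells with weak total dye signal (Fmax z < −2) or more than 5 off-targets removed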
Meaning of the calls: active = strongly reduced calcium entry; inactive = no strong reduction
In all, the deposit lists about 23,000 reagents; this is a random part of those that have a named target and a result. Over the whole deposit, 75 (0.33%) got an active call. 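Raw plate signals without normalisation; calls rest on plate z-scores that were not deposited; ratio present for only 364 wells.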 Unmarked entries are inactive. Names joined by + are all predicted targets of the reagent. Not stated in the record: the dose of the treatment.

predicted target,PubChem SID,"calcium entry signal, replicate 1 (fluorescence units)","calcium entry signal, replicate 2 (fluorescence units)","resting calcium signal, replicate 1 (fluorescence units)","resting calcium signal, replicate 2 (fluorescence units)"
Lamtor2 + CG30120,SID104185518,2.33e7,4.87e7,1.14e7,2.05e7
Lamtor2 + CG30120,SID104186714,5.61e7,5.11e7,2.22e7,2.44e7
CG42562,SID104186245,4.67e7,6.32e7,2.21e7,3.01e7
CG11808,SID104185880,2.18e7,2.10e7,1.01e7,9.91e6
Pgant7 (Polypeptide N-Acetylgalactosaminyltransferase 7),SID104199783,3.71e7,4.45e7,1.81e7,1.82e7
CG32213 + CG12519 + 825-Oak + 1 more,SID104189407,3.31e7,4.65e7,1.86e7,1.84e7
Dus1 (Dihydrouridine synthase 1),SID104180415,5.54e7,5.66e7,2.54e7,2.41e7
Tsp96F (Tetraspanin 96F),SID104193939,2.27e7,2.59e7,1.12e7,1.39e7
CG5756,SID104186742,3.49e7,3.98e7,1.50e7,1.79e7
CG2750,SID104199659,4.96e7,4.22e7,2.36e7,1.96e7
Eip63F-1 (Ecdysone-induced protein 63F 1),SID104187864,4.26e7,4.98e7,2.44e7,2.28e7
Eip63F-1 (Ecdysone-induced protein 63F 1),SID104188451,3.06e7,3.53e7,1.52e7,1.40e7
Btnd (Biotinidase),SID104198108,3.42e7,3.25e7,1.67e7,1.50e7
obe (obelus),SID104195528,3.40e7,4.91e7,1.48e7,2.13e7
CG16758,SID104187776,4.51e7,4.47e7,2.33e7,2.06e7
CG16758,SID104188284,4.61e7,4.02e7,2.01e7,1.96e7
CG42700,SID104186084,1.38e7,3.04e7,1.22e7,1.44e7
CG42700,SID104186085,1.46e7,4.13e7,1.31e7,1.84e7
CG42700,SID104202466,3.98e7,3.79e7,1.73e7,1.70e7
CG14561,SID104191514,2.91e7,5.98e7,1.38e7,2.46e7
Ccdc56 + mtTFB1,SID104190601,4.74e7,3.76e7,3.23e7,1.94e7
Jhbp3 (Juvenile hormone binding protein 3),SID104192039,2.75e7,5.50e7,1.44e7,2.34e7
smal (smoke alarm),SID104182110,3.45e7,2.17e7,1.76e7,1.16e7
smal (smoke alarm),SID104182111,3.60e7,4.21e7,1.90e7,1.96e7
smal (smoke alarm),SID104182112,3.82e7,4.12e7,1.79e7,1.80e7
smal (smoke alarm),SID104182296,3.40e7,4.28e7,1.70e7,1.88e7
smal (smoke alarm),SID104202225,1.85e7,4.06e7,1.05e7,1.87e7
